Data as given in PubChem BioAssay AID1224828 (NIAID, 2016).

Test: 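Knock-downs that increase or decrease LPS-induced p65 nuclear translocation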 (primary screen)
Cells: mouse RAW264.7 G9 macrophage reporter cells (GFP-p65, Tnf promoter-mCherry)
Reagents: siRNA pool against mouse genes, 100 nM
Timing: 2 days siRNA transfection, then 40 min LPS before fixation
Conditions: LPS (Salmonella minnesota R595) at 10 ng/ml
Read-out: 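Imaged p65 nuclear translocation ratio, normalised to the plate median, converted to robust z-scores and averaged across two replicates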
Direction: p65 translocation robust z-score: higher = more nuclear NF-kappaB p65 after LPS than the plate median; nuclear/cytoplasmic p65 ratio: higher = more nuclear NF-kappaB p65
Rule for the call: 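Called active when z exceeds 3.3 or falls under -1.56 (median of Tlr4 controls), giving activity score of at least 50; no calls for control wells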
Calls: active = hit (p65 shift raised or lowered); inactive = no clear change
The whole screen tested about 17,000 reagents; shown is a part drawn at random. Of all reagents, 762 (4.5%) are marked active. 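Active calls include both raised and lowered p65 entry, mostly lowered; wells with fewer than 50 cells lack a z-score.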 Raw values are not corrected between plates.

Or5m9b (olfactory receptor family 5 subfamily M member 9B)
- p65 translocation robust z-score: 1.17
- nuclear/cytoplasmic p65 ratio, rep 1: 1.83
- nuclear/cytoplasmic p65 ratio, rep 2: 1.76
- low cell count flag: enough cells to score
- activity call: inactive

Satb1 (special AT-rich sequence binding protein 1)
- p65 translocation robust z-score: -0.59
- nuclear/cytoplasmic p65 ratio, rep 1: 1.27
- nuclear/cytoplasmic p65 ratio, rep 2: 1.21
- low cell count flag: enough cells to score
- activity call: inactive

Adgrl4 (adhesion G protein-coupled receptor L4)
- p65 translocation robust z-score: -0.34
- nuclear/cytoplasmic p65 ratio, rep 1: 1.37
- nuclear/cytoplasmic p65 ratio, rep 2: 1.63
- low cell count flag: enough cells to score
- activity call: inactive

Rnf17 (ring finger protein 17)
- p65 translocation robust z-score: -0.23
- nuclear/cytoplasmic p65 ratio, rep 1: 1.35
- nuclear/cytoplasmic p65 ratio, rep 2: 1.23
- low cell count flag: enough cells to score
- activity call: inactive

Limited to “low cell count flag”, for 2 of the entries above:
Or5m9b (olfactory receptor family 5 subfamily M member 9B)	enough cells to score
Satb1 (special AT-rich sequence binding protein 1)	enough cells to score

The results go on.
Krtap19-2 (keratin associated protein 19-2)
- p65 translocation robust z-score: -0.34
- nuclear/cytoplasmic p65 ratio, rep 1: 1.73
- nuclear/cytoplasmic p65 ratio, rep 2: 1.44
- low cell count flag: enough cells to score
- activity call: inactive

B430209F14Rik (RIKEN cDNA B430209F14 gene)
- p65 translocation robust z-score: 1.48
- nuclear/cytoplasmic p65 ratio, rep 1: 1.86
- nuclear/cytoplasmic p65 ratio, rep 2: 2.02
- low cell count flag: enough cells to score
- activity call: inactive

Sfn (stratifin)
- p65 translocation robust z-score: 0.4
- nuclear/cytoplasmic p65 ratio, rep 1: 1.64
- nuclear/cytoplasmic p65 ratio, rep 2: 1.58
- low cell count flag: enough cells to score
- activity call: inactive

Gpr141 (G protein-coupled receptor 141)
- p65 translocation robust z-score: -0.03
- nuclear/cytoplasmic p65 ratio, rep 1: 1.5
- nuclear/cytoplasmic p65 ratio, rep 2: 1.58
- low cell count flag: enough cells to score
- activity call: inactive

Pcdhga5 (protocadherin gamma subfamily A, 5)
- p65 translocation robust z-score: -0.72
- nuclear/cytoplasmic p65 ratio, rep 1: 1.42
- nuclear/cytoplasmic p65 ratio, rep 2: 1.1
- low cell count flag: enough cells to score
- activity call: inactive

Acrbp (proacrosin binding protein)
- p65 translocation robust z-score: -0.71
- nuclear/cytoplasmic p65 ratio, rep 1: 1.46
- nuclear/cytoplasmic p65 ratio, rep 2: 1.62
- low cell count flag: enough cells to score
- activity call: inactive

Rgl3 (ral guanine nucleotide dissociation stimulator-like 3)
- p65 translocation robust z-score: 0.32
- nuclear/cytoplasmic p65 ratio, rep 1: 1.48
- nuclear/cytoplasmic p65 ratio, rep 2: 1.23
- low cell count flag: enough cells to score
- activity call: inactive

Lsm14b (LSM family member 14B)
- p65 translocation robust z-score: 0.25
- nuclear/cytoplasmic p65 ratio, rep 1: 1.39
- nuclear/cytoplasmic p65 ratio, rep 2: 1.64
- low cell count flag: enough cells to score
- activity call: inactive

Mob1a (MOB kinase activator 1A)
- p65 translocation robust z-score: -0.18
- nuclear/cytoplasmic p65 ratio, rep 1: 1.77
- nuclear/cytoplasmic p65 ratio, rep 2: 1.55
- low cell count flag: enough cells to score
- activity call: inactive

Nif3l1 (Ngg1 interacting factor 3-like 1 (S. pombe))
- p65 translocation robust z-score: 1.04
- nuclear/cytoplasmic p65 ratio, rep 1: 1.8
- nuclear/cytoplasmic p65 ratio, rep 2: 1.74
- low cell count flag: enough cells to score
- activity call: inactive
